The target of this assay is T1, desmoglein 3 (human (endogenous in HaCaT)) (UniProt P32926).
T1 sequence: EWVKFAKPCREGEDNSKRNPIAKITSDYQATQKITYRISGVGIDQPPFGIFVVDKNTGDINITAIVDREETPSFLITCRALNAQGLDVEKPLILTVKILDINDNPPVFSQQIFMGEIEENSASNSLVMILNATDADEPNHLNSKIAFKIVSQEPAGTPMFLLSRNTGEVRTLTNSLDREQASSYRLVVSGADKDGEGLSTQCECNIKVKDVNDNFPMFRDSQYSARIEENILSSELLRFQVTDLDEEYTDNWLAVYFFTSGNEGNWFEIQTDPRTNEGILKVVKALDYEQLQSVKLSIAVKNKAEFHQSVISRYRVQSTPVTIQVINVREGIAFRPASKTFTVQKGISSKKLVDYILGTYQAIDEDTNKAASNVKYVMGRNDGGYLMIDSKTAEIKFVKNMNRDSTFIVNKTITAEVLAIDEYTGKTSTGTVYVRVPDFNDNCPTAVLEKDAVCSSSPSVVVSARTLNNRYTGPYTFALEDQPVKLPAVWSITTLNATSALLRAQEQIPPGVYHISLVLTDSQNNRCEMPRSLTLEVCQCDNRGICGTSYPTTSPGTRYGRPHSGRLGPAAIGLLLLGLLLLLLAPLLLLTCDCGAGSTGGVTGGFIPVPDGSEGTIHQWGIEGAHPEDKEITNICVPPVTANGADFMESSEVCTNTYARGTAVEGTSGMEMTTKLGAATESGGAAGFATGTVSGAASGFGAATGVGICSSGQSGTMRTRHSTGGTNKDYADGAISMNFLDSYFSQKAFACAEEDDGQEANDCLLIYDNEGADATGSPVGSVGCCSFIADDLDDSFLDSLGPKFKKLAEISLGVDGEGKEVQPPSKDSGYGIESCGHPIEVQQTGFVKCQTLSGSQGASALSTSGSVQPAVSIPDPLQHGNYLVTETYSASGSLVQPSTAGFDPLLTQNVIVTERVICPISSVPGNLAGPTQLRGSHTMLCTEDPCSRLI
Description: co-IP.

Protein sequences, listed by entry. Tags and fused reporters are not part of them. Residues count along the entry.
UniProt Q14126, residues 50-1118: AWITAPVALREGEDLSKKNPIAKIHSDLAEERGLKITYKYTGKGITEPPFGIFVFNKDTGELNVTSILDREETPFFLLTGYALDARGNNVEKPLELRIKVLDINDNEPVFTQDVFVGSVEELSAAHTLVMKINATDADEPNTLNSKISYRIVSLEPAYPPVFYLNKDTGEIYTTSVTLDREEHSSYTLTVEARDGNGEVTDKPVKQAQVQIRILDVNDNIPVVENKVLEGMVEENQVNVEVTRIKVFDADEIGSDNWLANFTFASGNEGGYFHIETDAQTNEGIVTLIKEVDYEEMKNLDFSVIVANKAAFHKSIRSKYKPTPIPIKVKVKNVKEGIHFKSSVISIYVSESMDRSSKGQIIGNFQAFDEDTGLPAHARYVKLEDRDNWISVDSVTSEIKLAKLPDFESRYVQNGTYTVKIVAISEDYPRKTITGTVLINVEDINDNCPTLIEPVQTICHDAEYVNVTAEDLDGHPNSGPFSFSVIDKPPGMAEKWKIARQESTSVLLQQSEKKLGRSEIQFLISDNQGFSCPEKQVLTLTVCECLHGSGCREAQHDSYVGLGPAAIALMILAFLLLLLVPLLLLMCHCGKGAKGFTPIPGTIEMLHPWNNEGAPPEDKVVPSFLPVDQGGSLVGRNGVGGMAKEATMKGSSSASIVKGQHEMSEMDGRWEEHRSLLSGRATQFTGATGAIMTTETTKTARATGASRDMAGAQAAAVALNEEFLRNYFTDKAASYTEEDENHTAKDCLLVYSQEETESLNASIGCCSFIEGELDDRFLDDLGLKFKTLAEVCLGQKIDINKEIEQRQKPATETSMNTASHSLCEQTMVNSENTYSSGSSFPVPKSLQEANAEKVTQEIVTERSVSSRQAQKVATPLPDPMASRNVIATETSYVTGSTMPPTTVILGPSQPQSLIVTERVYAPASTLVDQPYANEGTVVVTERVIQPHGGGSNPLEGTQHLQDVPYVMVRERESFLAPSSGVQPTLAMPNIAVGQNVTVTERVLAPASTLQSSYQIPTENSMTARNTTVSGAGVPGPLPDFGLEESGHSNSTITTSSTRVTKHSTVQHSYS

No constants are given. Whether binding was seen depends on the method and setting. In cells and extracts the contact can be indirect. Some entries that bind do so weakly or less than the wild type.

“desmoglein 2 (from UniProt Q14126 50-1118)”: the binding entry is given as “binds”.

Source of the values: publication doi:10.1101/2020.04.06.027185.
